# Results taken from patent US12391657B2, “Small molecules that bind and/or modulate differentforms of tau oligomers” (The Board of Regents of the University of Texas System, priority 2019, dated 2025).
# Some of these results come from one statement about several compounds together.
# Key:
# [1] = system: PSP brain-derived tau oligomers (BDTOs); assay: Western blot of PSP brain-derived tau oligomers with and without compounds; type: biochemical; details: final conc. 5 μM, 16 hours
# [2] = system: PSP brain-derived tau oligomers (BDTOs); assay: Direct ELISA of PSP brain-derived tau oligomers with and without compounds; type: biochemical; details: final conc. 5 μM, 16 hours
Compound,"T22 immunoreactivity of PSP derived oligomers, Western blot [1]","T22 immunoreactivity of PSP BDTOs, direct ELISA [2]"
O=C(/C=C/c1ccc(F)cc1)C(=O)/C=C/c1ccc(F)cc1 [CL3],significant decrease in T22 immunoreactivity,decreased T22 immunoreactivity
O=C(/C=C/c1ccccc1)C(=O)/C=C/c1ccccc1 [CL1],significant decrease in T22 immunoreactivity,decreased T22 immunoreactivity
